# Laboratory results from patent US12257237B2 (priority 2017, dated 2025).
# Several values for one entry are separate records, joined by “and”; a condition that tells them apart may be missing. Equal entries are not always repeated. This continues a long series; more values of the same kind are listed elsewhere.
# Tested on: DD013 dedifferentiated liposarcoma
# Test: Antitumour activity in DD013 dedifferentiated liposarcoma xenograft model
# Assay type: in vivo, Athymic nude mice
# Method: Experiments were performed with female Athymic nude mice, 9-10 weeks old obtained from Harlan Laboratories (Udine, Italy). They were maintained under Specific Pathogen Free conditions with constant temperature and humidity, according to the institutional guidelines.
# Tumour growth mice was monitored two/three times a week (depending on tumour growth rate, to avoid unnecessary stress to the animals) by Vernier caliper. Mice were sacrificed when tumour reached a mean weight of 2±0.5 gr. The antitumour activity will be expressed as T/C %, where T and C were the mean tumour weight of treated and control groups, respectively. Mice were monitored daily and weighted at least two times a week. Tolerability was evaluated on the basis of body weight loss (BWL) and clinical observation.
# Statistical analysis was performed with GraphPad Prism version 6.01 software (GraphPad software, Inc., La Jolla, CA, USA). ANOVA test was performed to evaluate if there were statistically significant differences between treated and control groups.
# Briefly, xenografts were obtained by transplanting 3-4 mm tumour fragments s.c. in the flanks of mice. The growing tumour masses were measured with the aid of a Vernier caliper, and the tumour weights (TW, 1 mm^3=1 mg) were calculated by the formula: length×(width) 2/2. When tumour load achieved about 200-400 mg, mice were randomized into the experimental groups.
structure (smiles),measurement,setting,value
"Cn1c(CCCCCCC(=O)NO)nc2cc(N(CCCl)CCCl)ccc21 [EDO-S101, 7-(5-(bis(2-chloroethyl)amino)-1-methyl-1H-benzo[d]imidazol-2-yl)-N-hydroxyheptanamide]","DD0113 tumour weight, individual mouse","EDO60: EDO-S101 60 mg/kg q7dx3, day 33 from inoculum, 60 mg/kg",959.2 mg and 709.9 mg and 434.0 mg and 230.8 mg and 388.5 mg and 156.7 mg and 179.5 mg and 185.1 mg and 114.7 mg
same,"DD0113 tumour weight, individual mouse","EDO60: EDO-S101 60 mg/kg q7dx3, day 36 from inoculum, 60 mg/kg",752.3 mg and 694.9 mg and 374.9 mg and 195.0 mg and 320.6 mg and 151.2 mg and 215.2 mg and 208.1 mg and 95.8 mg
same,"DD0113 tumour weight, individual mouse","EDO60: EDO-S101 60 mg/kg q7dx3, day 40 from inoculum, 60 mg/kg",858.2 mg and 638.0 mg and 442.3 mg and 178.1 mg and 462.9 mg and 195.4 mg and 211.0 mg and 215.3 mg and 139.7 mg
same,"DD0113 tumour weight, individual mouse","EDO60: EDO-S101 60 mg/kg q7dx3, day 43 from inoculum, 60 mg/kg",788.1 mg and 594.1 mg and 396.4 mg and 196.5 mg and 359.1 mg and 165.1 mg and 214.6 mg and 247.2 mg and 94.4 mg
same,"DD0113 tumour weight, individual mouse","EDO60: EDO-S101 60 mg/kg q7dx3, day 47 from inoculum, 60 mg/kg",784.4 mg and 617.7 mg and 372.6 mg and 162.6 mg and 384.0 mg and 150.5 mg and 209.0 mg and 194.4 mg and 96.9 mg
same,"DD0113 tumour weight, individual mouse","EDO60: EDO-S101 60 mg/kg q7dx3, day 50 from inoculum, 60 mg/kg",753.8 mg and 533.9 mg and 327.6 mg and 176.0 mg and 334.2 mg and 138.1 mg and 199.7 mg and 257.7 mg and 77.1 mg
same,"DD0113 tumour weight, individual mouse","EDO60: EDO-S101 60 mg/kg q7dx3, day 54 from inoculum, 60 mg/kg",868.2 mg and 564.0 mg and 225.0 mg and 134.2 mg and 413.0 mg and 123.8 mg and 227.1 mg and 253.8 mg and 80.6 mg
same,"DD0113 tumour weight, individual mouse","EDO60: EDO-S101 60 mg/kg q7dx3, day 58 from inoculum, 60 mg/kg",862.4 mg and 420.0 mg and 265.4 mg and 150.8 mg and 404.6 mg and 134.5 mg and 187.9 mg and 247.8 mg and 56.8 mg
same,"DD0113 tumour weight, individual mouse","EDO60: EDO-S101 60 mg/kg q7dx3, day 65 from inoculum, 60 mg/kg",998.1 mg and 352.1 mg and 125.3 mg and 133.1 mg and 350.2 mg and 133.4 mg and 187.4 mg and 278.4 mg and 66.8 mg
same,"DD0113 tumour weight, individual mouse","EDO60: EDO-S101 60 mg/kg q7dx3, day 69 from inoculum, 60 mg/kg",1344.4 mg and 347.7 mg and 142.7 mg and 96.1 mg and 371.1 mg and 86.2 mg and 191.3 mg and 367.8 mg and 63.8 mg
same,"DD0113 tumour weight, individual mouse","EDO60: EDO-S101 60 mg/kg q7dx3, day 72 from inoculum, 60 mg/kg",1654.5 mg and 414.7 mg and 188.6 mg and 130.6 mg and 509.4 mg and 157.5 mg and 268.5 mg and 403.5 mg and 86.1 mg
same,"DD0113 tumour weight, individual mouse","EDO60: EDO-S101 60 mg/kg q7dx3, day 75 from inoculum, 60 mg/kg",1698.0 mg and 457.6 mg and 170.8 mg and 110.6 mg and 516.6 mg and 123.5 mg and 307.7 mg and 441.0 mg and 70.2 mg
same,"DD0113 tumour weight, individual mouse","EDO60: EDO-S101 60 mg/kg q7dx3, day 79 from inoculum, 60 mg/kg",1977.8 mg and 571.8 mg and 172.6 mg and 132.6 mg and 555.7 mg and 152.1 mg and 256.1 mg and 404.7 mg and 58.1 mg
same,"DD0113 tumour weight, individual mouse","EDO60: EDO-S101 60 mg/kg q7dx3, day 83 from inoculum, 60 mg/kg",1774.9 mg and 335.3 mg and 86.5 mg and 56.8 mg and 415.0 mg and 71.0 mg and 193.9 mg and 426.4 mg and 32.7 mg
same,"DD0113 tumour weight, individual mouse","EDO60: EDO-S101 60 mg/kg q7dx3, day 87 from inoculum, 60 mg/kg",1753.1 mg and 396.9 mg and 125.1 mg and 78.1 mg and 442.6 mg and 82.4 mg and 209.1 mg and 423.2 mg and 31.4 mg
same,"DD0113 tumour weight, individual mouse","EDO60: EDO-S101 60 mg/kg q7dx3, day 90 from inoculum, 60 mg/kg",1903.1 mg and 365.0 mg
same,"DD0113 tumour weight, individual mouse","EDO60: EDO-S101 60 mg/kg q7dx3, day 94 from inoculum, 60 mg/kg",1967.5 mg and 403.0 mg
same,"DD0113 tumour weight, individual mouse","EDO60: EDO-S101 60 mg/kg q7dx3, day 98 from inoculum, 60 mg/kg",1939.1 mg and 387.0 mg
same,"DD0113 tumour weight, individual mouse","EDO60: EDO-S101 60 mg/kg q7dx3, day 100 from inoculum, 60 mg/kg",2099.8 mg and 463.0 mg
same,"DD0113 tumour weight, individual mouse","EDO60: EDO-S101 60 mg/kg q7dx3, day 111 from inoculum, 60 mg/kg",2171.7 mg and 368.4 mg
same,"DD0113 tumour weight, individual mouse","EDO60: EDO-S101 60 mg/kg q7dx3, day 114 from inoculum, 60 mg/kg",2520.5 mg and 487.7 mg
same,"DD0113 tumour weight, individual mouse","EDO60: EDO-S101 60 mg/kg q7dx3, day 118 from inoculum, 60 mg/kg",3030.9 mg and 526.7 mg
same,"DD0113 tumour weight, individual mouse","EDO80: EDO-S101 80 mg/kg single dose, day 23 from inoculum, 80 mg/kg",176.4 mg and 118.7 mg and 113.3 mg and 81.5 mg
same,"DD0113 tumour weight, individual mouse","EDO80: EDO-S101 80 mg/kg single dose, day 26 from inoculum, 80 mg/kg",236.0 mg and 145.4 mg and 152.8 mg and 89.0 mg
same,"DD0113 tumour weight, individual mouse","EDO80: EDO-S101 80 mg/kg single dose, day 29 from inoculum, 80 mg/kg",229.9 mg and 182.9 mg and 95.7 mg and 80.4 mg
same,"DD0113 tumour weight, individual mouse","EDO80: EDO-S101 80 mg/kg single dose, day 33 from inoculum, 80 mg/kg",247.0 mg and 151.7 mg and 103.9 mg and 105.2 mg
same,"DD0113 tumour weight, individual mouse","EDO80: EDO-S101 80 mg/kg single dose, day 36 from inoculum, 80 mg/kg",242.1 mg and 168.5 mg and 129.4 mg and 109.8 mg
